Results are given in words; binding and its absence hold for the method and conditions named. Binding seen in cells or lysates may run through a third protein. Some entries that bind do so weakly or less than the wild type.
How the values were obtained:
Assay in all cases: pull-down; GST-hORF and FLAG-Hoxa1 co-expressed in COS7 or HEK293T; cleared lysate (Tris-HCl pH7.5 20mM, NaCl 120mM, EDTA 0.5mM, NP40 0.5%, glycerol 10%) overnight on glutathione-agarose beads, 3 washes; anti-FLAG western blot
[1] = target: T1, MyoD family inhibitor (human) (UniProt Q99750)
T1 sequence: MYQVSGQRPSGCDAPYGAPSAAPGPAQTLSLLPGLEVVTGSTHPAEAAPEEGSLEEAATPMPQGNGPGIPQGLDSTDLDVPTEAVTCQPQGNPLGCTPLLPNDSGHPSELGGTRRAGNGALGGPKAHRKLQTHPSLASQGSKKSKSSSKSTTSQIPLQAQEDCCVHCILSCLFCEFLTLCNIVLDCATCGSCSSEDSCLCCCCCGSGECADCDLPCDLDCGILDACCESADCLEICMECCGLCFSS

Sequences of proteins named here, by UniProt entry; tags and fusion partners are left off.
UniProt Q9Y2Y4: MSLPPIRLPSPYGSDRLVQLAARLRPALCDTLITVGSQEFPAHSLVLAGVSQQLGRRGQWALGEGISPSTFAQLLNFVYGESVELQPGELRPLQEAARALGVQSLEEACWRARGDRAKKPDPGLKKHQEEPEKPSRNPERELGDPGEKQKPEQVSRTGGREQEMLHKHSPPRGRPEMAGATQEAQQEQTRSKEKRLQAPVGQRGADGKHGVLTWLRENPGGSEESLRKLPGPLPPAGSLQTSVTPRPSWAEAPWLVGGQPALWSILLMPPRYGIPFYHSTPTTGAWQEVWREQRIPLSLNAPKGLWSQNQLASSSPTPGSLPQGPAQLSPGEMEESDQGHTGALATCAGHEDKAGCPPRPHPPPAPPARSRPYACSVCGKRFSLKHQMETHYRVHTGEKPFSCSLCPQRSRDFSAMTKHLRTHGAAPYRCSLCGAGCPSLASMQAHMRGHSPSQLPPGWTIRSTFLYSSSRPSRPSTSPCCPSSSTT
UniProt P09022: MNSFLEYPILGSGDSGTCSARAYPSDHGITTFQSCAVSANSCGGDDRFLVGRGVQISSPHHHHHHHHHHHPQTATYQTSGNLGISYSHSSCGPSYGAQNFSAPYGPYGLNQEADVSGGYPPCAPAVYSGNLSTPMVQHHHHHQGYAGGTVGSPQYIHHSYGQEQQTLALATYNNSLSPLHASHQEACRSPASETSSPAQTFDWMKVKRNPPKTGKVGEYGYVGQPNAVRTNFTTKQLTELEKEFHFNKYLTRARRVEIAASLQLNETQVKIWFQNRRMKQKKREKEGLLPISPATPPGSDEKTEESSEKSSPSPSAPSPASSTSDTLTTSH

[2] = target: T2, zinc finger, ZZ-type containing 3 (human) (UniProt Q8IYH5)
T2 sequence: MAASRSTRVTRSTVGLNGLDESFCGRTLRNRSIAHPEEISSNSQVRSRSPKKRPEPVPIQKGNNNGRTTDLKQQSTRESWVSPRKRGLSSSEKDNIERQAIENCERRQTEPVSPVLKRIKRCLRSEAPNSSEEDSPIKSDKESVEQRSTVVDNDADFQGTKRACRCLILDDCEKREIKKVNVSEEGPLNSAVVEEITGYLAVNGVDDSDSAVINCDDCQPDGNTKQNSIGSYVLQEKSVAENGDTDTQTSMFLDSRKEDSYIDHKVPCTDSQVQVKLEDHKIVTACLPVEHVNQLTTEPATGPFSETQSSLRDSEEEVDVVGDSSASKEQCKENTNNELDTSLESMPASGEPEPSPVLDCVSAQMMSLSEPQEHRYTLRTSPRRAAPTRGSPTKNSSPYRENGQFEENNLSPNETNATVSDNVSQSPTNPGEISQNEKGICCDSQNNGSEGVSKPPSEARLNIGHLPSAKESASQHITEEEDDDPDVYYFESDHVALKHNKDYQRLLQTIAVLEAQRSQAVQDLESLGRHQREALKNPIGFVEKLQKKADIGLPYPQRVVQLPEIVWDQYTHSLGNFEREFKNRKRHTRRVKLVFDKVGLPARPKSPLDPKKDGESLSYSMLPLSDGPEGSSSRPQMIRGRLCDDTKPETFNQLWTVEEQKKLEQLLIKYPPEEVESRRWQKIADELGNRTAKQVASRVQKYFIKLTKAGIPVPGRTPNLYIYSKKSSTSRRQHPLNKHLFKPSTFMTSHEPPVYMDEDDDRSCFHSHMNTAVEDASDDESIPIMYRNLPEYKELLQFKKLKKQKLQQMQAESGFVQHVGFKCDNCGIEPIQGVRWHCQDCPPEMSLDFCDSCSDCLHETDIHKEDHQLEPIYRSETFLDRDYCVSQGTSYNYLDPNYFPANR

[3] = target: zinc finger and BTB domain containing 32 (human) (UniProt Q9Y2Y4)
keratin 81 (human) = target: T3, keratin 81 (human) (UniProt Q14533)
T3 sequence: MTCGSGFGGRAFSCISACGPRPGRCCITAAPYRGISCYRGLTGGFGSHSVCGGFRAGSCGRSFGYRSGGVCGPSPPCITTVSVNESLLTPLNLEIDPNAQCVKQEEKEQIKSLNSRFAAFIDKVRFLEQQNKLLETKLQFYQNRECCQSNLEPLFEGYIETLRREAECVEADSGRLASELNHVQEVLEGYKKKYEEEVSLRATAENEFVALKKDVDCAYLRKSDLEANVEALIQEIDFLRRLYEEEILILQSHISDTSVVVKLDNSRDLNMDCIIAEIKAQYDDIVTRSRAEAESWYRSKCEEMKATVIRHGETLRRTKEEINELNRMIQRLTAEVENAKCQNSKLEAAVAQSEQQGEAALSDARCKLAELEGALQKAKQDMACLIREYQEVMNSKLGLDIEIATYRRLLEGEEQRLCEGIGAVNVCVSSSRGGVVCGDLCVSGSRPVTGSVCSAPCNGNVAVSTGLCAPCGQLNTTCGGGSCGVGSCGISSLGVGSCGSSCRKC

[4] = target: T4, thyroid hormone receptor interactor 6 (human) (UniProt Q15654)
T4 sequence: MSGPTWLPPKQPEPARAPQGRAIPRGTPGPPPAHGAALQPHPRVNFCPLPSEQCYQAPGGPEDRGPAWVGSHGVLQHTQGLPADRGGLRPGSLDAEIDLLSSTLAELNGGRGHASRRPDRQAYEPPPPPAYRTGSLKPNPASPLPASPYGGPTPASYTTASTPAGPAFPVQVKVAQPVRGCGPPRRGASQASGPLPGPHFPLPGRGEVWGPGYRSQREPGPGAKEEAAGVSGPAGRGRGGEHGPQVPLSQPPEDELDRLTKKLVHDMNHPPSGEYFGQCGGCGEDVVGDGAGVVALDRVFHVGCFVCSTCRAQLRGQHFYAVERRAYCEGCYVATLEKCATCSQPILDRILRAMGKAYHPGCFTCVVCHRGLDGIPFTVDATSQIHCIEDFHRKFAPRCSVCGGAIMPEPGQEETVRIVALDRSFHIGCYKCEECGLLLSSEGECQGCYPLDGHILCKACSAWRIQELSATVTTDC

Measured: binding

FLAG-Hoxa1 (from UniProt P09022 1-331)
binds: [1] | [2] | [3] | keratin 81 (human) | [4]

— article PMC3514159
